Our source for the binding values is patent publication US20170158763A1.

By UniProt entry, the sequences of proteins in these tests, tags left out. Where a name states a change or a piece, a line headed by the entry shows the natural chain unless it says otherwise.
UniProt P43630: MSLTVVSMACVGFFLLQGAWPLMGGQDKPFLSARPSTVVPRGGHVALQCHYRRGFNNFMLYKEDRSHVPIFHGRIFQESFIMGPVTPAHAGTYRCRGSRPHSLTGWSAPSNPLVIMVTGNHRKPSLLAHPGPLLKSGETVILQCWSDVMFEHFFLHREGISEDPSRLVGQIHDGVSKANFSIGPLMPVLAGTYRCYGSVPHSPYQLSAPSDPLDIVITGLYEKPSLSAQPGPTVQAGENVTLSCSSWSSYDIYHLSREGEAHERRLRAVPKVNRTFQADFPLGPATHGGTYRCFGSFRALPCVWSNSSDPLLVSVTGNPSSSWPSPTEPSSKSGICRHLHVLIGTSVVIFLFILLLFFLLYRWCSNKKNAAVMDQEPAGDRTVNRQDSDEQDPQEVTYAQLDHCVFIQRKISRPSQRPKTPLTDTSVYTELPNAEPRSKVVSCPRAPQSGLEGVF

Assay [1] deals with KIR3DL2 (as expressed on RAJI-KIR3DL2 cells) (human) (UniProt P43630). The experiment in a line: binding assay of Example 1 at two mAb concentrations, compared with chimeric 2B12.
Assay [2] shares this target. The assay can be described thus: flow cytometry titration on RAJI-KIR3DL2 cells, goat anti-human-PE detection.
Assay [3] has the same target. The experiment in a line: binding assay of Example 1 at two mAb concentrations, compared with chimeric 10G5.

No constants are given. Whether binding was seen depends on the method and setting. Some results given as binding are weak or reduced against the parent protein; the word gives no strength.

B1: 2B12-H4L1 (antibody, human IgG1, V domains shown)
VH: QIQLVQSGSELKKPGASVKVSCKASGYTFTTAGMQWVQKTPGKGLEWIGWINSHSGVPKYAEDFKGRFAFSLDTSASTAYLQISSLKAEDTAVYFCARGGDEGVMDYWGQGTSVTVSS
VL: DIQMTQSPSFLSASVGDRVTITCKASQDVSTAVAWYQQKPGQPPKLLIYWTSTRHTGVPDRFSGSGSGTDYTLTISSLQAEDVAVYYCQQHYSTPWTFGGGTKVEIK
Turning to B1, the binding entry in assay [1] and in assay [2] was “binds” each time.

B2: 2B12-H2L4 (antibody, human IgG1, V domains shown)
VH: QIQLVQSGSELKKPGASVKVSCKASGYTFTTAGMQWVRQAPGQGLEWIGWINSHSGVPKYAEDFKGRFVFSLDTSVSTAYLQISSLKAEDTAVYFCARGGDEGVMDYWGQGTTVTVSS
VL: DIVMTQSHKFLSASVGDRVTFTCKASQDVSTAVAWYQQKPGQSPKLLIYWTSTRHTGVPDRFSGSGSGTDYTLTISSVQAEDVAVYYCQQHYSTPWTFGGGTKLEIK
Regarding B2, the binding entry in assay [1] and in assay [2] was “binds” each time.

B3: 2B12-H4L2 (antibody, human IgG1, V domains shown)
VH: QIQLVQSGSELKKPGASVKVSCKASGYTFTTAGMQWVQKTPGKGLEWIGWINSHSGVPKYAEDFKGRFAFSLDTSASTAYLQISSLKAEDTAVYFCARGGDEGVMDYWGQGTSVTVSS
VL: DIVMTQSPSFLSASVGDRVTITCKASQDVSTAVAWYQQKPGQPPKLLIYWTSTRHTGVPDRFSGSGSGTDYTLTISSVQAEDVAVYYCQQHYSTPWTFGGGTKVEIK
As for B3, the binding result in assay [1] and in assay [2] was “binds” in each case.

B4: 2B12-H3L1 (antibody, human IgG1, V domains shown)
VH: QIQLVQSGSELKKPGASVKVSCKASGYTFTTAGMQWVQKSPGQGLEWIGWINSHSGVPKYAEDFKGRFAFSLDTSVSTAYLQISSLKAEDTAVYFCARGGDEGVMDYWGQGTTVTVSS
VL: DIQMTQSPSFLSASVGDRVTITCKASQDVSTAVAWYQQKPGQPPKLLIYWTSTRHTGVPDRFSGSGSGTDYTLTISSLQAEDVAVYYCQQHYSTPWTFGGGTKVEIK
In the case of B4, the binding result in assay [1] and in assay [2] was “binds” throughout.

B5: 2B12-H2L1 (antibody, human IgG1, V domains shown)
VH: QIQLVQSGSELKKPGASVKVSCKASGYTFTTAGMQWVRQAPGQGLEWIGWINSHSGVPKYAEDFKGRFVFSLDTSVSTAYLQISSLKAEDTAVYFCARGGDEGVMDYWGQGTTVTVSS
VL: DIQMTQSPSFLSASVGDRVTITCKASQDVSTAVAWYQQKPGQPPKLLIYWTSTRHTGVPDRFSGSGSGTDYTLTISSLQAEDVAVYYCQQHYSTPWTFGGGTKVEIK
As for B5, the binding entry in assay [1] and in assay [2] was “binds” in each case.

B6: 2B12-H/L Parental (parental chimeric 2B12) (antibody, V domains shown)
VH: QIQLVQSGPELKKPGETVRISCKASGYTFTTAGMQWVQKTPGKGLKWIGWINSHSGVPKYAEDFKGRFAFSLETSASTAYLQISTLKNEDTATYFCARGGDEGVMDYWGQGTSVTVSS
VL: DIVMTQSHKFMSTSLGDRVSFTCKASQDVSTAVAWYQQKPGQSPKLLIYWTSTRHTGVPDRFTGSGSGTDYTLTISSVQAEDLALYYCQQHYSTPWTFGGGTKLEIK
For the molecule B6, the binding entry in assay [2] is on record as “binds”.

B7: 2B12-H4L4 (antibody, human IgG1, V domains shown)
VH: QIQLVQSGSELKKPGASVKVSCKASGYTFTTAGMQWVQKTPGKGLEWIGWINSHSGVPKYAEDFKGRFAFSLDTSASTAYLQISSLKAEDTAVYFCARGGDEGVMDYWGQGTSVTVSS
VL: DIVMTQSHKFLSASVGDRVTFTCKASQDVSTAVAWYQQKPGQSPKLLIYWTSTRHTGVPDRFSGSGSGTDYTLTISSVQAEDVAVYYCQQHYSTPWTFGGGTKLEIK
Take B7: the binding entry in assay [1] and in assay [2] was “binds” throughout.

B8: 2B12-H3L4 (antibody, human IgG1, V domains shown)
VH: QIQLVQSGSELKKPGASVKVSCKASGYTFTTAGMQWVQKSPGQGLEWIGWINSHSGVPKYAEDFKGRFAFSLDTSVSTAYLQISSLKAEDTAVYFCARGGDEGVMDYWGQGTTVTVSS
VL: DIVMTQSHKFLSASVGDRVTFTCKASQDVSTAVAWYQQKPGQSPKLLIYWTSTRHTGVPDRFSGSGSGTDYTLTISSVQAEDVAVYYCQQHYSTPWTFGGGTKLEIK
For B8, the binding result in assay [1] and in assay [2] was “binds” in each case.

B9: 2B12-H1L2 (antibody, human IgG1, V domains shown)
VH: QVQLVQSGSELKKPGASVKVSCKASGYTFTTAGMQWVQKSPGQGLEWMGWINSHSGVPKYAEDFKGRFVFSLDTSVSTAYLQISSLKAEDTAVYFCARGGDEGVMDYWGQGTTVTVSS
VL: DIVMTQSPSFLSASVGDRVTITCKASQDVSTAVAWYQQKPGQPPKLLIYWTSTRHTGVPDRFSGSGSGTDYTLTISSVQAEDVAVYYCQQHYSTPWTFGGGTKVEIK
B9: the binding result in assay [1] and in assay [2] was “binds” in each case.

B10: 2B12-H4L3 (antibody, human IgG1, V domains shown)
VH: QIQLVQSGSELKKPGASVKVSCKASGYTFTTAGMQWVQKTPGKGLEWIGWINSHSGVPKYAEDFKGRFAFSLDTSASTAYLQISSLKAEDTAVYFCARGGDEGVMDYWGQGTSVTVSS
VL: DIVMTQSPSFLSASVGDRVTFTCKASQDVSTAVAWYQQKPGQSPKLLIYWTSTRHTGVPDRFSGSGSGTDYTLTISSVQAEDVAVYYCQQHYSTPWTFGGGTKVEIK
For B10, the binding result in assay [1] and in assay [2] was “binds” in each case.

B11: 2B12-H1L4 (antibody, human IgG1, V domains shown)
VH: QVQLVQSGSELKKPGASVKVSCKASGYTFTTAGMQWVQKSPGQGLEWMGWINSHSGVPKYAEDFKGRFVFSLDTSVSTAYLQISSLKAEDTAVYFCARGGDEGVMDYWGQGTTVTVSS
VL: DIVMTQSHKFLSASVGDRVTFTCKASQDVSTAVAWYQQKPGQSPKLLIYWTSTRHTGVPDRFSGSGSGTDYTLTISSVQAEDVAVYYCQQHYSTPWTFGGGTKLEIK
As to B11, the binding result in assay [1] and in assay [2] was “binds” throughout.

B12: 2B12-H1L1 (antibody, human IgG1, V domains shown)
VH: QVQLVQSGSELKKPGASVKVSCKASGYTFTTAGMQWVQKSPGQGLEWMGWINSHSGVPKYAEDFKGRFVFSLDTSVSTAYLQISSLKAEDTAVYFCARGGDEGVMDYWGQGTTVTVSS
VL: DIQMTQSPSFLSASVGDRVTITCKASQDVSTAVAWYQQKPGQPPKLLIYWTSTRHTGVPDRFSGSGSGTDYTLTISSLQAEDVAVYYCQQHYSTPWTFGGGTKVEIK
In the case of B12, the binding result in assay [1] and in assay [2] was “binds” each time.

B13: 2B12-H2L2 (antibody, human IgG1, V domains shown)
VH: QIQLVQSGSELKKPGASVKVSCKASGYTFTTAGMQWVRQAPGQGLEWIGWINSHSGVPKYAEDFKGRFVFSLDTSVSTAYLQISSLKAEDTAVYFCARGGDEGVMDYWGQGTTVTVSS
VL: DIVMTQSPSFLSASVGDRVTITCKASQDVSTAVAWYQQKPGQPPKLLIYWTSTRHTGVPDRFSGSGSGTDYTLTISSVQAEDVAVYYCQQHYSTPWTFGGGTKVEIK
Consider B13, for which the binding result in assay [1] and in assay [2] was “binds” throughout.

B14: 2B12-H3L2 (antibody, human IgG1, V domains shown)
VH: QIQLVQSGSELKKPGASVKVSCKASGYTFTTAGMQWVQKSPGQGLEWIGWINSHSGVPKYAEDFKGRFAFSLDTSVSTAYLQISSLKAEDTAVYFCARGGDEGVMDYWGQGTTVTVSS
VL: DIVMTQSPSFLSASVGDRVTITCKASQDVSTAVAWYQQKPGQPPKLLIYWTSTRHTGVPDRFSGSGSGTDYTLTISSVQAEDVAVYYCQQHYSTPWTFGGGTKVEIK
Take B14: the binding entry in assay [1] and in assay [2] was “binds” throughout.

B15: 2B12-H2L3 (antibody, human IgG1, V domains shown)
VH: QIQLVQSGSELKKPGASVKVSCKASGYTFTTAGMQWVRQAPGQGLEWIGWINSHSGVPKYAEDFKGRFVFSLDTSVSTAYLQISSLKAEDTAVYFCARGGDEGVMDYWGQGTTVTVSS
VL: DIVMTQSPSFLSASVGDRVTFTCKASQDVSTAVAWYQQKPGQSPKLLIYWTSTRHTGVPDRFSGSGSGTDYTLTISSVQAEDVAVYYCQQHYSTPWTFGGGTKVEIK
Consider B15, for which the binding result in assay [1] and in assay [2] was “binds” each time.

B16: 2B12-H3L3 (antibody, human IgG1, V domains shown)
VH: QIQLVQSGSELKKPGASVKVSCKASGYTFTTAGMQWVQKSPGQGLEWIGWINSHSGVPKYAEDFKGRFAFSLDTSVSTAYLQISSLKAEDTAVYFCARGGDEGVMDYWGQGTTVTVSS
VL: DIVMTQSPSFLSASVGDRVTFTCKASQDVSTAVAWYQQKPGQSPKLLIYWTSTRHTGVPDRFSGSGSGTDYTLTISSVQAEDVAVYYCQQHYSTPWTFGGGTKVEIK
Turning to B16, the binding result in assay [1] and in assay [2] was “binds” throughout.

B17: 2B12-H1L3 (antibody, human IgG1, V domains shown)
VH: QVQLVQSGSELKKPGASVKVSCKASGYTFTTAGMQWVQKSPGQGLEWMGWINSHSGVPKYAEDFKGRFVFSLDTSVSTAYLQISSLKAEDTAVYFCARGGDEGVMDYWGQGTTVTVSS
VL: DIVMTQSPSFLSASVGDRVTFTCKASQDVSTAVAWYQQKPGQSPKLLIYWTSTRHTGVPDRFSGSGSGTDYTLTISSVQAEDVAVYYCQQHYSTPWTFGGGTKVEIK
B17: the binding result in assay [1] and in assay [2] was “binds” throughout.

B18: 10G5-H3L2 (antibody, human IgG1, V domains shown)
VH: QVQLVQSGAEVKKPGASVKVSCKASGYTFTSYTMHWVRQAPGQGLEWIGYINPSSGYTENNRKFKDKTTMTADTSTSTAYMELSSLRSEDTAVYYCARLGKGLLPPFDYWGQGTTVTVSS
VL: DIQMTQSPSSLSASVGDRVTITCRASENIYSNLAWYQQKPGKAPQLLVYAATNLADGVPSRFSGSGSGTDYTLTISSLQPEDFATYYCQHFWGTPYTFGGGTKLEIK
On to B18, for which the binding entry in assay [3] and in assay [2] was “binds” throughout.

B19: 10G5-H5L3 (antibody, human IgG1, V domains shown)
VH: QVQLVQSGAELARPGASVKVSCKASGYTFTSYTMHWVRQAPGQGLEWIGYINPSSGYTENNRKFKDKTTLTADKSTSTAYMELSSLRSEDTAVYYCARLGKGLLPPFDYWGQGTTVTVSS
VL: DIQMTQSPSSLSASVGDRVTITCRASENIYSNLAWYQQKPGKAPQLLVYAATNLADGVPSRFSGSGSGTQYTLTISSLQPEDFATYYCQHFWGTPYTFGGGTKLEIK
Regarding B19, the binding result in assay [3] and in assay [2] was “binds” in each case.
